Laboratory results published in PubChem BioAssay.
The inconclusive results got no clear call from the source; some entries with a clear call stand among them for comparison. Where the call is inconclusive, the potency comes from a doubtful curve fit. The source made the active and inactive calls. Unless noted, cut-off not given; nearly all actives show AC50 up to about 26 µM.

Tests used:
[1] = growth inhibition of DIPG glioma cells, dose response, cell-based, SU-DIPG-XVII, MIPE5.0, CellTiter-Glo, qHTS (AID 1347060); conditions: SU-DIPG-XVII viability, CellTiter-Glo ATP luminescence;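 on AC50: cells exposed to compound for 48 hours before viability readout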
[2] = growth inhibition of DIPG glioma cells, dose response, cell-based, SU-DIPG-XIII, MIPE4.0, CellTiter-Glo, qHTS (AID 1347061; cut-off not given, nearly all actives have AC50 up to about 37 µM;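 further: cells exposed to compound for 48 hours before readout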); conditions: SU-DIPG-XIII viability, CellTiter-Glo ATP luminescence
[3] = growth inhibition of DIPG glioma cells, dose response, cell-based, JHH-DIPG-1, MIPE4.0, CellTiter-Glo, qHTS (AID 1347062; cut-off not given, nearly all actives have AC50 up to about 27 µM;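 on AC50: cells exposed to compound for two days before readout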); conditions: JHH-DIPG-1 viability, CellTiter-Glo ATP luminescence
[4] = growth inhibition of DIPG glioma cells, dose response, cell-based, SU-DIPG-IV, MIPE4.0, CellTiter-Glo, qHTS (AID 1347063; cut-off not given, nearly all actives have AC50 up to about 30 µM;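 further: compound exposure lasted 48 hours before the viability readout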); conditions: SU-DIPG-IV viability, CellTiter-Glo ATP luminescence
[5] = growth inhibition of DIPG glioma cells, dose response, cell-based, SU-DIPG-XIII, MIPE5.0, CellTiter-Glo, qHTS (AID 1347064; cut-off not given, nearly all actives have AC50 up to about 23 µM;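 on AC50: cells exposed to compound for 48 hours before the viability read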); conditions: SU-DIPG-XIII viability, CellTiter-Glo ATP luminescence
[6] = viability loss in pontine glioma line – cell-based, SU-DIPG-XXV, MIPE5.0, CellTiter-Glo, qHTS, dose response (AID 1347065); conditions: CellTiter-Glo ATP luminescence;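 further: cells exposed to compound for 48 hours before ATP readout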
[7] = SU-DIPG-VI glioma cell viability, MIPE4.0 library, CellTiter-Glo luminescence, qHTS (AID 1347066; cut-off not given, nearly all actives have AC50 up to about 30 µM;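 further: cells exposed to compound for 48 hours before readout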); conditions: CellTiter-Glo ATP luminescence
[8] = JHH-DIPG-1 glioma cell viability, MIPE5.0 library, CellTiter-Glo luminescence, qHTS (AID 1347067); conditions: JHH-DIPG-1 glioma viability, CellTiter-Glo ATP luminescence;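 further: cells exposed to compound for 48 hours before readout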
[9] = SU-DIPG-XXV glioma cell viability, MIPE5.0 library, qHTS (AID 1347068; cut-off not given, nearly all actives have IC50 up to about 30 µM;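 on IC50: cells exposed to compound for 48 hours before viability readout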)

SMILES | outcome [1] | outcome [2] | AC50 [3] | outcome [4] | outcome [5] | AC50 [6] | outcome [7] | outcome [8] | outcome [9] | AC50 [1] | AC50 [2] | AC50 [4] | AC50 [5] | AC50 [7] | AC50 [8] | IC50 [9] | outcome [3]
CNC[C@H](O)[C@@H](O)[C@H](O)[C@H](O)CO | inactive | inactive | inconclusive: 3.72 µM | inactive | inactive | inconclusive: 0.00525 µM [cytotoxic] | inactive | inactive | inactive |  |  |  |  |  |  |  | 
CCc1cc2c(cc1N1CCC(N3CCOCC3)CC1)C(C)(C)c1[nH]c3cc(C#N)ccc3c1C2=O |  |  | inconclusive: 0.0166 µM |  |  | active: 2.04 µM |  |  | inactive | inconclusive: 0.204 µM [cytotoxic] | inconclusive: 0.00833 µM | inconclusive: 0.0132 µM | inconclusive: 2.29 µM [cytotoxic] | inconclusive: 0.0132 µM | inconclusive: 5.12 µM [cytotoxic] |  | 
CCOC(=O)Nc1ccc(NCc2ccc(F)cc2)nc1N |  |  | inconclusive: 0.0935 µM [cytotoxic] | inactive | inactive | inconclusive: 37.2 µM [cytotoxic] | inactive | inactive |  | inconclusive: 33.2 µM [cytotoxic] | inconclusive: 16.6 µM [cytotoxic] |  |  |  |  | inconclusive: 23.5 µM | 
FC(F)(F)c1ccc(Nc2nc3ccc(Oc4ccnc(-c5ncc(C(F)(F)F)[nH]5)c4)cc3[nH]2)cc1 |  |  | inconclusive: 26.4 µM [cytotoxic] |  |  | inconclusive: 33.2 µM [cytotoxic] |  |  |  | inconclusive: 29.5 µM [cytotoxic] | inconclusive: 23.5 µM [cytotoxic] | inconclusive: 0.418 µM [cytotoxic] | inconclusive: 37.2 µM [cytotoxic] | active: 20.9 µM | inconclusive: 18.6 µM [cytotoxic] | inconclusive: 16.6 µM [cytotoxic] | 
COCC(=O)NC/C=C/c1ccc2ncnc(Nc3ccc(Oc4ccc(C)nc4)c(C)c3)c2c1 |  |  | inconclusive: 23.5 µM [cytotoxic] |  |  | inconclusive: 37.2 µM [cytotoxic] |  | inactive |  | inconclusive: 33.2 µM [cytotoxic] | inconclusive: 33.2 µM [cytotoxic] | inconclusive: 18.7 µM [cytotoxic] | inconclusive: 37.2 µM [cytotoxic] | inconclusive: 20.9 µM [cytotoxic] |  | inconclusive: 37.2 µM [cytotoxic] | 
C=CC(=O)Nc1cccc(Sc2nc(Nc3ccc(N4CCN(C)CC4)cc3)ncc2Cl)c1 |  |  | inconclusive: 11.8 µM [cytotoxic] |  |  | active: 1.48 µM |  |  |  | inconclusive: 0.525 µM [cytotoxic] | inconclusive: 37.2 µM [cytotoxic] | inconclusive: 2.64 µM [cytotoxic] | active: 2.09 µM | inconclusive: 9.35 µM [cytotoxic] | active: 4.17 µM | active: 1.66 µM | 
Fc1ccc(CNc2ncnc3ccc(F)cc23)cc1 |  |  |  |  | inactive | inconclusive: 0.00186 µM [cytotoxic] |  |  | inactive | inconclusive: 14.8 µM [cytotoxic] | inconclusive: 8.33 µM [cytotoxic] | inconclusive: 1.18 µM [cytotoxic] |  | inconclusive: 14.8 µM [cytotoxic] | inconclusive: 20.9 µM [cytotoxic] |  | inactive
C[C@@H](Oc1cc(-n2cnc3ccc(CN4CCN(C)CC4)cc32)sc1C(N)=O)c1ccccc1C(F)(F)F |  |  | inconclusive: 33.2 µM [cytotoxic] |  |  | active: 0.0372 µM |  |  |  | active: 0.0525 µM | inconclusive: 0.118 µM [cytotoxic] | inconclusive: 23.5 µM [cytotoxic] | inconclusive: 0.105 µM [cytotoxic] | active: 18.7 µM | inconclusive: 18.6 µM [cytotoxic] | inconclusive: 37.2 µM [cytotoxic] | 
CO[C@H]1/C=C/O[C@@]2(C)Oc3c(C)c(O)c4c(O)c(c5c(c4c3C2=O)=NC2(CCN(CC(C)C)CC2)N=5)NC(=O)/C(C)=C/C=C/[C@H](C)[C@H](O)[C@@H](C)[C@@H](O)[C@@H](C)[C@H](OC(C)=O)[C@@H]1C |  | inactive |  | inactive | inactive | inconclusive: 26.3 µM [cytotoxic] |  |  |  | inconclusive: 23.5 µM [cytotoxic] |  |  |  | inconclusive: 33.2 µM [cytotoxic] | inconclusive: 33.2 µM [cytotoxic] | inconclusive: 33.2 µM [cytotoxic] | inactive
O=C(O)Cc1cccc(OCCCN(Cc2cccc(C(F)(F)F)c2Cl)CC(c2ccccc2)c2ccccc2)c1 |  |  |  |  |  | active: 20.9 µM |  |  |  | inconclusive: 23.5 µM [cytotoxic] | inconclusive: 23.5 µM [cytotoxic] | active: 20.9 µM | inconclusive: 37.2 µM [cytotoxic] | inconclusive: 26.4 µM [cytotoxic] | inconclusive: 37.2 µM [cytotoxic] | inconclusive: 23.5 µM [cytotoxic] | inactive

Reprinted at random: 2 records from the list, in no set order.
SMILES | outcome [1] | outcome [2] | AC50 [3] | outcome [4] | outcome [5] | AC50 [6] | outcome [7] | outcome [8] | outcome [9] | AC50 [1] | AC50 [2] | AC50 [4] | AC50 [5] | AC50 [7] | AC50 [8] | IC50 [9] | outcome [3]
C[C@@H](Oc1cc(-n2cnc3ccc(CN4CCN(C)CC4)cc32)sc1C(N)=O)c1ccccc1C(F)(F)F |  |  | inconclusive: 33.2 µM [cytotoxic] |  |  | active: 0.0372 µM |  |  |  | active: 0.0525 µM | inconclusive: 0.118 µM [cytotoxic] | inconclusive: 23.5 µM [cytotoxic] | inconclusive: 0.105 µM [cytotoxic] | active: 18.7 µM | inconclusive: 18.6 µM [cytotoxic] | inconclusive: 37.2 µM [cytotoxic] | 
CCc1cc2c(cc1N1CCC(N3CCOCC3)CC1)C(C)(C)c1[nH]c3cc(C#N)ccc3c1C2=O |  |  | inconclusive: 0.0166 µM |  |  | active: 2.04 µM |  |  | inactive | inconclusive: 0.204 µM [cytotoxic] | inconclusive: 0.00833 µM | inconclusive: 0.0132 µM | inconclusive: 2.29 µM [cytotoxic] | inconclusive: 0.0132 µM | inconclusive: 5.12 µM [cytotoxic] |  | 
